Values quoted from earlier work in patent US20030211475A1, “Methods for identifying pathway-specific reporters and target genes, and uses thereof” (Rosetta Inpharmatics, Inc., priority 1999, published 2003).
For at least one compound, name, drawing or mass did not settle the structure.

System: Tet promoter
Conditions: Tet system in yeast (Gari et al., 1997); cited from earlier work

With C[C@H]1c2cccc(O)c2C(=O)C2=C(O)[C@]3(O)C(=O)C(C(N)=O)=C(O)[C@@H](N(C)C)[C@@H]3[C@@H](O)[C@@H]21 [doxycycline] as the molecule, how does the “level that gives maximal repression of promoter activity” value read?
The value was 10 micrograms/ml.
